This note sets out measurements from PMC5041981.

Amino acid sequences for entries named in this document (tags omitted). A change or cut given only in a name is not applied to a line headed by its entry.
UniProt P27695: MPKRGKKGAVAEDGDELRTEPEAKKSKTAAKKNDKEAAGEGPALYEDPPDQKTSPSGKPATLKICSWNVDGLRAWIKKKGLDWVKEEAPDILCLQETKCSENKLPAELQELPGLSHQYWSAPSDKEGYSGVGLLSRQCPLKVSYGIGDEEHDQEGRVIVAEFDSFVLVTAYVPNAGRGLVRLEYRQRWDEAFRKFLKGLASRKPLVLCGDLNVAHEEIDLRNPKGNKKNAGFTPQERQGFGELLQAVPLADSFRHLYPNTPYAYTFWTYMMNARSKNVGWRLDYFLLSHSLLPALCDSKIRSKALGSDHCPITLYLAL
UniProt P18887: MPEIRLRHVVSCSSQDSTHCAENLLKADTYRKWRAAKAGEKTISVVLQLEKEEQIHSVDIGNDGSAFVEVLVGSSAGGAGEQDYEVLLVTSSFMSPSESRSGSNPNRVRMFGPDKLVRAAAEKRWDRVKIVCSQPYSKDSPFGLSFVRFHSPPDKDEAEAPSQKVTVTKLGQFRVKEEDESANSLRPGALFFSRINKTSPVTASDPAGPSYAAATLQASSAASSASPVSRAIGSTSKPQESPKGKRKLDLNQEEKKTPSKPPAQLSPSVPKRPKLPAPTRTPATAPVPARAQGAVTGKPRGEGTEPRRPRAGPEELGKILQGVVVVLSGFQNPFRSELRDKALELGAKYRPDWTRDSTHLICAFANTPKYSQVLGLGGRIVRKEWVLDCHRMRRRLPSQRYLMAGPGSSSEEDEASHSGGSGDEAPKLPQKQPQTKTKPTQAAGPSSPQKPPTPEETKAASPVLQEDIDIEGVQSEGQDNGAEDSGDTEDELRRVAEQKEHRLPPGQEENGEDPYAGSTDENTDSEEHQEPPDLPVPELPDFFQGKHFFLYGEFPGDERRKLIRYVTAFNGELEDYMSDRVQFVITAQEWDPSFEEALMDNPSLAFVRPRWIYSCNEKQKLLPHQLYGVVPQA

Test [1] addresses APE1 D148E genetic variant, Flag-tagged (human) (UniProt P27695). Kind of test: co-IP; HeLa cells transiently transfected with Flag-tagged APE1 plasmids; co-immunoprecipitated Polβ and XRCC1 detected by Western blot, normalized to the FLAG-tagged variant levels; APE1^WT set to 100%.
Test [2] has as its target Apurinic/apyrimidinic endonuclease 1 (APE1), wild type, Flag-tagged (human) (UniProt P27695). The test is described as above.

No constants are given. Whether binding was seen depends on the method and setting. In cells and extracts the contact can be indirect. Some binding calls cover weakened binding; strength is not graded here.

On to “X-ray repair cross-complementing protein 1 (from UniProt P18887 1-633)”, for which, in test [1], the binding entry is on record as “binds”.

For the substance “X-ray repair cross-complementing protein 1 (from UniProt P18887 1-633) (other; other documents disagree on this pair)”, in test [2], the binding result was “binds”.
